Source: PMC5994430, “Mitochondrial Delivery of Phenol Substructure Triggers Mitochondrial Depolarization and Apoptosis of Cancer Cells” (Frontiers in Pharmacology, 2018)

Legend:
U-2OS cells = assay: Cell viability (neutral red), IC50; assay type: cell-based, Human; conditions: normal osteoblasts vs osteosarcoma
A549 cells = assay: Cell viability (neutral red); assay type: cell-based, Human; conditions: normal lung epithelium vs lung cancer
Text: Human colon cancer HT29 cells, colon-derived normal fibroblast CCD-18Co cells, lung cancer A549 cells, normal human bronchial epithelial (immortalized with adenovirus 12-SV40 virus hybrid Ad12SV40) BEAS-2B cells, breast cancer MDA-MB-231 cells, normal breast epithelial MCF10A cells, human osteosarcoma U-2OS cells were purchased from ATCC (Manassas, VA, United States). […] All subjects gave written informed consent in accordance with the Declaration of Helsinki. Cells were maintained in medium supplemented with 10% v/v fetal bovine serum, 1% v/v penicillin-streptomycin, 1% v/v L-glutamine. Morphological analysis was performed with a bright field microscope (Leica Microsystems, Wetzlar, Germany). […]
LDH activity was measured in the extracellular medium and in the cell lysate: 50 μl of extracellular medium or 5 μl of cell lysate were incubated at 37°C with 5 mM NADH. The reaction was started by adding 20 mM pyruvic acid and was monitored for 6 min, measuring absorbance at 340 nm using a Synergy HT Multi-Detection Microplate Reader (Bio-Tek Instruments, Winoosky, MT, United States). […] Both intracellular and extracellular enzyme activities were expressed as μmol NADH oxidized/min/dish. The results were expressed as percentage of extracellular LDH versus total (intracellular plus extracellular) LDH. […] IC50 was calculated with the CompuSyn software^1.

SMILES	ratio between the IC50 in osteoblasts and U-2OS cells (U-2OS cells)	ratio between the IC50 in BEAS-2B cells and A549 cells (A549 cells)
CC(=O)Oc1ccc(C[P+](c2ccccc2)(c2ccccc2)c2ccccc2)cc1.[Br-] [Compound 1]	14.36	16.97
O=C(Oc1ccc(C[P+](c2ccccc2)(c2ccccc2)c2ccccc2)cc1C(F)(F)F)c1ccccc1.[Br-] [Compound 2]	5.41	13.38
